Measurements from article PMC12270237.
Results are given in words; binding and its absence hold for the method and conditions named. In cells and extracts the contact can be indirect. A yes stands for co-enrichment or nearness to the bait. Other partners may have been found.

Target: MICU1-HA
Experiment: affinity purification with mass spectrometry; IP of MICU1-HA from Mcu-/- HEK 293T cells expressing MICU1-HA alone or with MICU2-Myc and/or MICU3-FLAG; LC/MS; hits cross-referenced with a published MICU1-BioID2 dataset

Binder | binding
Succinate dehydrogenase iron-sulfur subunit B (SDHB) (protein, UniProt P21912 29-280) AQTAAATAPRIKKFAIYRWDPDKAGDKPHMQTYEVDLNKCGPMVLDALIKIKNEVDSTLTFRRSCREGICGSCAMNINGGNTLACTRRIDTNLNKVSKIYPLPHMYVIKDLVPDLSNFYAQYKSIEPYLKKKDESQEGKQQYLQSIEEREKLDGLYECILCACCSTSCPSYWWNGDKYLGPAVLMQAYRWMIDSRDDFTEERLAKLQDPFSLYRCHTIMNCTRTCPKGLNPGKAIAEIKKMMATYKEKKASV | binds
Glycerol-3-phosphate dehydrogenase (GPD2) (protein, UniProt P43304 43-727) ADCISEPVNREPPSREAQLLTLQNTSEFDILVIGGGATGSGCALDAVTRGLKTALVERDDFSSGTSSRSTKLIHGGVRYLQKAIMKLDIEQYRMVKEALHERANLLEIAPHLSAPLPIMLPVYKWWQLPYYWVGIKLYDLVAGSNCLKSSYVLSKSRALEHFPMLQKDKLVGAIVYYDGQHNDARMNLAIALTAARYGAATANYMEVVSLLKKTDPQTGKVRVSGARCKDVLTGQEFDVRAKCVINATGPFTDSVRKMDDKDAAAICQPSAGVHIVMPGYYSPESMGLLDPATSDGRVIFFLPWQKMTIAGTTDTPTDVTHHPIPSEEDINFILNEVRNYLSCDVEVRRGDVLAAWSGIRPLVTDPKSADTQSISRNHVVDISESGLITIAGGKWTTYRSMAEDTINAAVKTHNLKAGPSRTVGLFLQGGKDWSPTLYIRLVQDYGLESEVAQHLAATYGDKAFEVAKMASVTGKRWPIVGVRLVSEFPYIEAEVKYGIKEYACTAVDMISRRTRLAFLNVQAAEEALPRIVELMGRELNWDDYKKQEQLETARKFLYYEMGYKSRSEQLTDRSEISLLPSDIDRYKKRFHKFDADQKGFITIVDVQRVLESINVQMDENTLHEILNEVDLNKNGQVELNEFLQLMSAIQKGRVSGSRLAILMKTAEENLDRRVPIPVDRSCGGL | binds
